From paper PMC4824496
No constants are given. Whether binding was seen depends on the method and setting. Some results given as binding are weak or reduced against the parent protein; the word gives no strength.

Amino acid sequences for entries named in this document (tags omitted). Residues count along the entry.
UniProt O00206, residues 24-839: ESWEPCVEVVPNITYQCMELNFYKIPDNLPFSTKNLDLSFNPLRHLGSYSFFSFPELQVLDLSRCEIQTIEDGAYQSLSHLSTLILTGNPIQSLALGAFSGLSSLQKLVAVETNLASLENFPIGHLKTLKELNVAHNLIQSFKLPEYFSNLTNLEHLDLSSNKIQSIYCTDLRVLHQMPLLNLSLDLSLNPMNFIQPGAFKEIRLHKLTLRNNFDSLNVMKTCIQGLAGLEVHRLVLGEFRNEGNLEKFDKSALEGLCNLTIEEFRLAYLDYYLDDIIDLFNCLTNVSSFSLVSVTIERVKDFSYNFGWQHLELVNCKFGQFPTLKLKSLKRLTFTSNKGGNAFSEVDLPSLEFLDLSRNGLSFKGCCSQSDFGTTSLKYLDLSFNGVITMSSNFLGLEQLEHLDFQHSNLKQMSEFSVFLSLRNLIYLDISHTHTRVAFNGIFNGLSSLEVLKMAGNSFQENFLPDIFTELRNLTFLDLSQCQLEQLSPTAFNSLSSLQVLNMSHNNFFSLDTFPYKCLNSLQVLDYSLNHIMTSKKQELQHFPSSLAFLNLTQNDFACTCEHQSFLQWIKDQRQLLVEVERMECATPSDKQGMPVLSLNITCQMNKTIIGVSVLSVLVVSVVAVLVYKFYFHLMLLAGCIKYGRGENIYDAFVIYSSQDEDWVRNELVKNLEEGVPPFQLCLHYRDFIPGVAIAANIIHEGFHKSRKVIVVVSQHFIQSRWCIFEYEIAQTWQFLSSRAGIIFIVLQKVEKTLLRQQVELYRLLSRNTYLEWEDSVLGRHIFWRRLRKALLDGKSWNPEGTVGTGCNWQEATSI
UniProt P06733: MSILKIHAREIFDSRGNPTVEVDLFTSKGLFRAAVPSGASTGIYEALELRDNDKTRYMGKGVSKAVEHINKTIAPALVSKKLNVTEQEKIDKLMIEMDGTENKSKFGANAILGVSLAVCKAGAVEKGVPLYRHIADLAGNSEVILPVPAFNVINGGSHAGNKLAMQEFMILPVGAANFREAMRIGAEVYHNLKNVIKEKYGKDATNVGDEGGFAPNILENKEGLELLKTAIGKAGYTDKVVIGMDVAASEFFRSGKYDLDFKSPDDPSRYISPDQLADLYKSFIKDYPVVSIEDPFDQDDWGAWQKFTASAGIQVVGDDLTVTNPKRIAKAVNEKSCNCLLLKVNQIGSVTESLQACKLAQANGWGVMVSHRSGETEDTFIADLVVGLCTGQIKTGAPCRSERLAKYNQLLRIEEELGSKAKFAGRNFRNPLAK

Molecular target: Human TLR4 on HEK-Blue hTLR4 cells (human) (UniProt O00206)
Test: flow cytometry on cells; competitive binding assay: 1.10^6 HEK-Blue hTLR4 cells for 20 minutes at 4 °C with sucrose (1 mg) and ENO1 (25 μg, 500 μg or 2 mg), then 55 μg FITC-labelled LPS and 10 μl APC-labelled anti-TLR4 antibody for 20 minutes at 4 °C; only the binder purified

Q: Which binding does the source give for “Human recombinant alpha-enolase (ENO1) (from UniProt P06733 1-434)” here?
A: binds
